The other results are listed elsewhere or left out.

Amino acid sequences for entries named in this document (tags omitted).
UniProt Q0JBA9, entry or part of it: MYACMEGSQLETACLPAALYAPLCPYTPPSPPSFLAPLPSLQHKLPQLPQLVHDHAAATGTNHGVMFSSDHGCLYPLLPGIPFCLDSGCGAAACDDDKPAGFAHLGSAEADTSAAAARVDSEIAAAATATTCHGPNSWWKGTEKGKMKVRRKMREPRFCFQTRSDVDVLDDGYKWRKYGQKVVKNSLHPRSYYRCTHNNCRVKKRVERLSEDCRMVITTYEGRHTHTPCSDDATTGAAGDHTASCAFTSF

The assay deals with OsWRKY34 (Oryza sativa, UniProt Q0JBA9 1-250). Kind of assay: protein-binding microarray (RPBM); PBS, 2% BSA, 51.3 ng/ul salmon testes DNA, 50 uM zinc acetate, 200 nM TF, 25 C, 1 h; high values mean tight binding. The settings on record: protein: recombinant; tags: N-terminal polyhistidine and DsRed monomer fusion (pET32a); label: CyDye5-dUTP incorporated in the synthesized complementary strand; 3' TTTTT single-stranded linker to array surface; dsDNA, one strand shown. The method in brief:
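The binding signal for each feature is its fluorescence intensity in arbitrary units. An Axon 4000B scanner was used to read a custom Agilent array that had been made double-stranded with Cy5-dUTP primer extension, blocked with 2% BSA, incubated at 25 °C for 1 h with 200 nM protein in PBS, 2% BSA, salmon testes DNA and 50 µM zinc acetate, and washed. The protein was an N-terminal polyhistidine–DsRed transcription factor fusion from E. coli BL21-CodonPlus, purified on Ni–NTA.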
As to “ACATGGGCTGGGCTGGGCTGGGCTCTTCTTCCTTTTTGTTCGGAGTCACCTAGTGCAG”, the binding signal is 21900 fluorescence intensity (a.u.).
For “CTTTGGTGGTTAGTACCCTATATATTGCGCGTCTTAAAATCGGAGTCACCTAGTGCAG” the value was 8740 fluorescence intensity (a.u.).
“GTAAGTATACTAGTACCAGTAGAGTGCATGTTTGCCAGCCCGGAGTCACCTAGTGCAG”: the binding signal was 8140 fluorescence intensity (a.u.).
With “ATTCGCAGCGTTGACCAGCATTCATATTCCGAATTCCGAGCGGAGTCACCTAGTGCAG” the figure was 11200 fluorescence intensity (a.u.); with “AACTTTCTCAAGTCTTTCATGCATGCAGATATATATTCTCCGGAGTCACCTAGTGCAG”, 8450 fluorescence intensity (a.u.); with “AAATACACAATCTTTTCTCATCACACCCTTCCATTTTTTTCGGAGTCACCTAGTGCAG”, 8940 fluorescence intensity (a.u.).
Take “AAGATTCCAATCGGGAGGCGGCGGGGCGGCGGAGAAGCTCCGGAGTCACCTAGTGCAG”: the binding signal is 14300 fluorescence intensity (a.u.).
With “ATAACCCGCTGCTATTCTCTCTTCTCATTTATCTTCTTAACGGAGTCACCTAGTGCAG” the figure was 8960 fluorescence intensity (a.u.).
With “GGCGGGAGCGTGAAGGGGAGGGACATGGCGGGGAGCGGATCGGAGTCACCTAGTGCAG” the figure was 9940 fluorescence intensity (a.u.).
As to “CTATTACCAATTGCAAATTCTTTTTTGGTTTTCTATCAGTCGGAGTCACCTAGTGCAG”, the binding signal is 9250 fluorescence intensity (a.u.).
For “CTGCTGGCCTCTTGCCCAGGCTCTGCCGTACTTTGCCTTTCGGAGTCACCTAGTGCAG” the value was 8020 fluorescence intensity (a.u.).
Take “GGGGTACTTTATTCAGTTTTGATACAGTTAGGGCTTATAGCGGAGTCACCTAGTGCAG”: the binding signal was 9110 fluorescence intensity (a.u.).
For “GGTTTGGCTTGGCTTGGCGGCTGGTTCTGCTGAGGCTGACCGGAGTCACCTAGTGCAG” the value was 11900 fluorescence intensity (a.u.).
On to “GCACTACTCCATCTGTACCGTCCATGCCACAAAACGAGTGCGGAGTCACCTAGTGCAG”, for which the binding signal was 8040 fluorescence intensity (a.u.).
As to “CAGTCCTTTTTCATAACATCAATCTGTTATACACACACAACGGAGTCACCTAGTGCAG”, the binding signal is 8760 fluorescence intensity (a.u.).
With “CCGATGACAAGTTGAGGGACCTTTGGTGTACTTTTTCCTTCGGAGTCACCTAGTGCAG” the figure was 8040 fluorescence intensity (a.u.); with “CAAACTTCACCTCTACTCTCTCTCTCTCTCTCTCTCTCTCCGGAGTCACCTAGTGCAG”, 8760 fluorescence intensity (a.u.); with “AATTGGCTTACTAAACGTGCCCATAGTTTGTAATATATCTCGGAGTCACCTAGTGCAG”, 8170 fluorescence intensity (a.u.).
For “TCACGATGTGGTCGATCCACATTCCAGCCTGCAACTGCACCGGAGTCACCTAGTGCAG” the value was 8480 fluorescence intensity (a.u.); for “TCTGAATTTTTTTTTCTTTGGTAAGATACTAATTGCGTTCCGGAGTCACCTAGTGCAG”, 9650 fluorescence intensity (a.u.).
For “CCACGCGCACGCTTTTCAAACTATTAAATTATGCGTTTTTCGGAGTCACCTAGTGCAG” the value was 8340 fluorescence intensity (a.u.); for “TTAATCATATGCGGTTTCTTGTATTTCACGTGTCGCCGAACGGAGTCACCTAGTGCAG”, 10200 fluorescence intensity (a.u.).
On to “TTTTTTGATATACTATTCTTGTTGACACAAGCTCATTTTTCGGAGTCACCTAGTGCAG”, for which the binding signal was 11000 fluorescence intensity (a.u.).
Take “CATGCGACACTCTACTTTACACCTTTAGATCTAAACACCCCGGAGTCACCTAGTGCAG”: the binding signal is 8690 fluorescence intensity (a.u.).
For “GCAACCACGCGCCGTTGGCTTCGCCGCCTATATATACATACGGAGTCACCTAGTGCAG” the value was 9050 fluorescence intensity (a.u.); for “ATTTGTGTTTGTCCTTTTTCTTTTAGCTTTCTTGGCAGCCCGGAGTCACCTAGTGCAG”, 13100 fluorescence intensity (a.u.); for “ACGCGGCGATGTTTCCCATTATTTCCAGCCTCCGCCGACACGGAGTCACCTAGTGCAG”, 8310 fluorescence intensity (a.u.).
Turning to “GCCGGATCGAGCCCAACGCCACAGTTTCTTCTCGTCACAACGGAGTCACCTAGTGCAG”, the binding signal is 10700 fluorescence intensity (a.u.).
For “CTCTGTGTGTTGTGTGCTCGAAACAAATTATCCATGTTCTCGGAGTCACCTAGTGCAG” the value was 10700 fluorescence intensity (a.u.); for “AGTGTGTTGTGTTTGAGCTGCCGATGAAGGTGGCGGTGGACGGAGTCACCTAGTGCAG”, 8900 fluorescence intensity (a.u.); for “ACCCTTTTCAACCTATAAATTTATCACGGTCAGATCAATTCGGAGTCACCTAGTGCAG”, 8480 fluorescence intensity (a.u.).
For “CTTGCTCTCCTCTCTCGTGCTCCATCGATCGATCGATCTCCGGAGTCACCTAGTGCAG” the value was 9660 fluorescence intensity (a.u.).
With “CTAATCCACTTTTTATTTTTTGCGCCATTTTTTCTTTTTCCGGAGTCACCTAGTGCAG” the figure was 10800 fluorescence intensity (a.u.); with “CCCCACCAACCTCCTCCTCCGCCGCCGCCGCCGCCGCCTCCGGAGTCACCTAGTGCAG”, 10600 fluorescence intensity (a.u.).
Regarding “AATAAGGCCAAATCTTCAATGCGCTCACTTTTCAGCTCATCGGAGTCACCTAGTGCAG”, the binding signal is 9760 fluorescence intensity (a.u.).
For “GTACTGCGTCTACGTATACTCTCCTCTCTCTCTCTCACACCGGAGTCACCTAGTGCAG”, the binding signal was 9240 fluorescence intensity (a.u.).
“GTGTAGTGGTGTGTGTACGCGTGCGTCTACCGTATAATCGCGGAGTCACCTAGTGCAG”: the binding signal is 8210 fluorescence intensity (a.u.).
For “GCGCTCGCCGCTGCCGCAAGCTCGCCTCCGACCCCGGCCACGGAGTCACCTAGTGCAG” the value was 9530 fluorescence intensity (a.u.).
For “GTGAAGATCGACGTATTTTCCGAGCTGACCCTCTGCATGCCGGAGTCACCTAGTGCAG” the value was 8180 fluorescence intensity (a.u.); for “CCTCCTTCATTGGCACTACTACATCCTCTTTCTTCTCATCCGGAGTCACCTAGTGCAG”, 8400 fluorescence intensity (a.u.); for “ATGCTGTTATGTAGATTTTCTGTTTAAGAATTGGTCTCGTCGGAGTCACCTAGTGCAG”, 9280 fluorescence intensity (a.u.).
For the sequence “AATCTACATCTATGATCTGTCACTGCTTCTCTCTCTCTCCCGGAGTCACCTAGTGCAG”, the binding signal is 10900 fluorescence intensity (a.u.).
